Measured values as given in publication PMC13144348.
Results are given in words; binding and its absence hold for the method and conditions named. Some results given as binding are weak or reduced against the parent protein; the word gives no strength. For some of these results: Tags and fused reporters may be left off the sequences shown.

B1: MAP3K^Byr2 (construct of Fig. S2A) (protein, UniProt P28829 1-659)
chain: MEYYTSKEVAEWLKSIGLEKYIEQFSQNNIEGRHLNHLTLPLLKDLGIENTAKGKQFLKQRDYLREFPRPCILRFIACNGQTRAVQSRGDYQKTLAIALKKFSLEDASKFIVCVSQSSRIKLITEEEFKQICFNSSSPERDRLIIVPKEKPCPSFEDLRRSWEIELAQPAALSSQSSLSPKLSSVLPTSTQKRSVRSNNAKPFESYQRPPSELINSRISDFFPDHQPKLLEKTISNSLRRNLSIRTSQGHNLGNFGQEILPRSSRRARPSELVCPLSSLRISVAEDVNRLPRIDRGFDPPLTVSSTQRISRPPSLQKSITMVGVEPLYQSNGNEKSSKYNVFSESAHGNHQVLSFSPGSSPSFIEQPSPISPTSTTSEDTNTLEEDTDDQSIKWIRGALIGSGSFGQVYLGMNASSGELMAVKQVILDSVSESKDRHAKLLDALAGEIALLQELSHEHIVQYLGSNLNSDHLNIFLEYVPGGSVAGLLTMYGSFEETLVKNFIKQTLKGLEYLHSRGIVHRDIKGANILVDNKGKIKISDFGISKKLELNSTSTKTGGARPSFQGSSFWMAPEVVKQTMHTEKTDIWSLGCLVIEMLTSKHPYPNCDQMQAIFRIGENILPEFPSNISSSAIDFLEKTFAIDCNLRPTASELLSHPFVS
B2: MAP3K^Byr2, GFP-tagged (co-recruitment prey) (protein, UniProt P28829 1-659)
chain: MEYYTSKEVAEWLKSIGLEKYIEQFSQNNIEGRHLNHLTLPLLKDLGIENTAKGKQFLKQRDYLREFPRPCILRFIACNGQTRAVQSRGDYQKTLAIALKKFSLEDASKFIVCVSQSSRIKLITEEEFKQICFNSSSPERDRLIIVPKEKPCPSFEDLRRSWEIELAQPAALSSQSSLSPKLSSVLPTSTQKRSVRSNNAKPFESYQRPPSELINSRISDFFPDHQPKLLEKTISNSLRRNLSIRTSQGHNLGNFGQEILPRSSRRARPSELVCPLSSLRISVAEDVNRLPRIDRGFDPPLTVSSTQRISRPPSLQKSITMVGVEPLYQSNGNEKSSKYNVFSESAHGNHQVLSFSPGSSPSFIEQPSPISPTSTTSEDTNTLEEDTDDQSIKWIRGALIGSGSFGQVYLGMNASSGELMAVKQVILDSVSESKDRHAKLLDALAGEIALLQELSHEHIVQYLGSNLNSDHLNIFLEYVPGGSVAGLLTMYGSFEETLVKNFIKQTLKGLEYLHSRGIVHRDIKGANILVDNKGKIKISDFGISKKLELNSTSTKTGGARPSFQGSSFWMAPEVVKQTMHTEKTDIWSLGCLVIEMLTSKHPYPNCDQMQAIFRIGENILPEFPSNISSSAIDFLEKTFAIDCNLRPTASELLSHPFVS
B3: Byr2^N28I (construct of Fig. S2A) (protein, UniProt P28829 1-659)
chain: MEYYTSKEVAEWLKSIGLEKYIEQFSQINIEGRHLNHLTLPLLKDLGIENTAKGKQFLKQRDYLREFPRPCILRFIACNGQTRAVQSRGDYQKTLAIALKKFSLEDASKFIVCVSQSSRIKLITEEEFKQICFNSSSPERDRLIIVPKEKPCPSFEDLRRSWEIELAQPAALSSQSSLSPKLSSVLPTSTQKRSVRSNNAKPFESYQRPPSELINSRISDFFPDHQPKLLEKTISNSLRRNLSIRTSQGHNLGNFGQEILPRSSRRARPSELVCPLSSLRISVAEDVNRLPRIDRGFDPPLTVSSTQRISRPPSLQKSITMVGVEPLYQSNGNEKSSKYNVFSESAHGNHQVLSFSPGSSPSFIEQPSPISPTSTTSEDTNTLEEDTDDQSIKWIRGALIGSGSFGQVYLGMNASSGELMAVKQVILDSVSESKDRHAKLLDALAGEIALLQELSHEHIVQYLGSNLNSDHLNIFLEYVPGGSVAGLLTMYGSFEETLVKNFIKQTLKGLEYLHSRGIVHRDIKGANILVDNKGKIKISDFGISKKLELNSTSTKTGGARPSFQGSSFWMAPEVVKQTMHTEKTDIWSLGCLVIEMLTSKHPYPNCDQMQAIFRIGENILPEFPSNISSSAIDFLEKTFAIDCNLRPTASELLSHPFVS
B4: MAP3K^Byr2 N28I, GFP-tagged (co-recruitment prey) (protein, UniProt P28829 1-659)
chain: MEYYTSKEVAEWLKSIGLEKYIEQFSQINIEGRHLNHLTLPLLKDLGIENTAKGKQFLKQRDYLREFPRPCILRFIACNGQTRAVQSRGDYQKTLAIALKKFSLEDASKFIVCVSQSSRIKLITEEEFKQICFNSSSPERDRLIIVPKEKPCPSFEDLRRSWEIELAQPAALSSQSSLSPKLSSVLPTSTQKRSVRSNNAKPFESYQRPPSELINSRISDFFPDHQPKLLEKTISNSLRRNLSIRTSQGHNLGNFGQEILPRSSRRARPSELVCPLSSLRISVAEDVNRLPRIDRGFDPPLTVSSTQRISRPPSLQKSITMVGVEPLYQSNGNEKSSKYNVFSESAHGNHQVLSFSPGSSPSFIEQPSPISPTSTTSEDTNTLEEDTDDQSIKWIRGALIGSGSFGQVYLGMNASSGELMAVKQVILDSVSESKDRHAKLLDALAGEIALLQELSHEHIVQYLGSNLNSDHLNIFLEYVPGGSVAGLLTMYGSFEETLVKNFIKQTLKGLEYLHSRGIVHRDIKGANILVDNKGKIKISDFGISKKLELNSTSTKTGGARPSFQGSSFWMAPEVVKQTMHTEKTDIWSLGCLVIEMLTSKHPYPNCDQMQAIFRIGENILPEFPSNISSSAIDFLEKTFAIDCNLRPTASELLSHPFVS

How the values were obtained:
[1] = biological target: T1, Ste4 (construct of Fig. S2A) (S. pombe) (UniProt P36622); test: two-hybrid; pGAD and pGBD plasmids co-transformed in AH109; growth on selective SD medium lacking histidine with 3-amino-1,2,4-triazole
T1 sequence: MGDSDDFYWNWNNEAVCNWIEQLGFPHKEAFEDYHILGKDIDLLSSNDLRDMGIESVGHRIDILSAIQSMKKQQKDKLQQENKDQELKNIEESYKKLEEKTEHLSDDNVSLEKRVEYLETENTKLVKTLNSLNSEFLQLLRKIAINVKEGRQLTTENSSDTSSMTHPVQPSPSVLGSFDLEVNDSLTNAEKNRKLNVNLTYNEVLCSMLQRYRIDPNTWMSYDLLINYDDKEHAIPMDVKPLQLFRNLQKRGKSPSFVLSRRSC

[2] = biological target: T2, Pil1-Ste4-mCherry (S. pombe) (UniProt P36622); test: Pil1 co-recruitment assay (microscopy); mCherry-tagged bait fused to Pil1 to target it to eisosomes; recruitment of the GFP-tagged prey assessed by microscopy in vegetative cells in MSL+N; Pearson correlation coefficient
T2 sequence: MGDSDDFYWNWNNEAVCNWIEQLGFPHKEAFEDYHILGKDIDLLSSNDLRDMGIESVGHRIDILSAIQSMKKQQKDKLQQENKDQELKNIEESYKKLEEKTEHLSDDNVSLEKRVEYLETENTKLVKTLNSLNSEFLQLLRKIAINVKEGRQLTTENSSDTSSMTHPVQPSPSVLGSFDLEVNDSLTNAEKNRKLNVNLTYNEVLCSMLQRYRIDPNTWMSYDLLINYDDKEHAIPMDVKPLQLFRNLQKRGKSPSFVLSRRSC

Binder | binding [1] | binding [2]
B1 | binds | 
B2 |  | binds
B3 | no binding | 
B4 |  | no binding
